These are yes or no findings as the source states them, for the method shown.
How the values were obtained:
Experiment in all cases: condition: competitor series starting at approximately 1000:1 over biotinylated human IgE; DELFIA epitope competition, immobilised IgG, biotinylated IgE
[1] = target: purified IgA (Calbiochem) (human)
[2] = target: purified IgD (Calbiochem) (human)
[3] = target: purified IgG (Calbiochem) (human)
[4] = target: purified IgM (Calbiochem) (human)

Measured: binding

B1: Antibody 1 IgG (antibody, V domains shown)
VH: QVQLVQSGAEVKKPGATVKLSCKVYGYIFTDYNIYWVRQAPGKGLEWMGLIDPDNGETFYAEKFQGRATMTADTSSDRAYMELTSLTFEDTATYYCATVLHRRLKGGYDYWGRGTLVTVSS
VL: QSVLTQPPSVSGAPGQRVTISCTGSSSNIGAGYDVHWYQQLPGTAPKLLIYDNFNRPSGVPDRFSGSKSGTSASLAIIGLQTEDEADYYCQSYDSSLSGSLFGTGTKLTVL
no binding: [1] | [2] | [3] | [4]
